Test: Radiolysis: release of drugs from prodrugs after reduction
Conditions: isopropanol/water 50:50, nitrous oxide saturated, 60Co irradiation 3.9 Gy min^−1; released drug by HPLC

9-[(4,6-O-Ethylidene-β-D-glucopyranosyl)oxy]-5,8,8a,9-tetrahydro-5-(4-(1-(5-nitrothien-2-yl)ethoxy)-3,5-dimethoxyphenyl)furo[3′,4′:6,7]naphtha[2,3-d]-1,3-dioxol-6(5aH)-one [Example 1]
G (radiation chemical yield, G-value) of drug released: 0.32 µmol/J

COc1cc([C@@H]2c3cc4c(cc3[C@@H](OC3OC5COC(c6cccs6)OC5C(O)C3O)[C@H]3COC(=O)[C@H]23)OCO4)cc(OC)c1OCc1ccc([N+](=O)[O-])s1 (stereo partly drawn) [Example 3, 9-[(4,6-O-(Thien-2-ylmethylidene-β-D-glucopyranosyl)oxy]-5,8,8a,9-tetrahydro-5-(4-(5-nitrothien-2-yl)methoxy)-3,5-dimethoxyphenyl)furo[3′,4′:6,7]naphtha[2,3-d]-1,3-dioxol-6(5aH)-one]
G (radiation chemical yield, G-value) of drug released: 0.57 µmol/J
